Source: patent US8933142B2, “Low-extractable thioxanthones” (Lamberti Spa, priority 2010, dated 2015)

Assay: Extractability in offset printing (HPLC of contact solution)
Details: 10 days at 40° C., mean of triplicate; for Amount extracted, EtOH 10%: ethanol/water 10/90, 200 mL; for Amount extracted, EtOH 95%: ethanol/water 95/5, 200 mL

SMILES | Amount extracted, EtOH 10% | Amount extracted, EtOH 95%
CCCCCCCCCCCCOC(=O)c1ccc2c(=O)c3cc(C)ccc3sc2c1 [Example 1, dodecyl-7-methyl-9-oxo-9H-thioxanthene-3-carboxylate] | <50 ppb | <50 ppb
C=CCOC(=O)c1ccc2c(=O)c3cc(C)ccc3sc2c1 [Example 4, allyl 7-methyl-9-oxo-9H-thioxanthene-3-carboxylate] | <50 ppb | 76 ppb
Cc1ccc2sc3cc(C(=O)N(CC(C)C)CC(C)C)ccc3c(=O)c2c1 [Example 5, N,N-disobutyl 7-methyl-9-oxo-9H-thioxanthene-3-carboxamide] | <50 ppb | <50 ppb
CC(C)c1ccc2sc3ccccc3c(=O)c2c1 [ITX, isopropyl thioxanthone, reference compound] | 75 ppb | 749 ppb
